The other results are listed elsewhere or left out. Most values lie at the level of the controls, where differences are scatter.
Compound: CN[C@@H]1C[C@H]2O[C@@](C)([C@@H]1OC)n1c3ccccc3c3c4c(c5c6ccccc6n2c5c31)C(=O)NC4 [staurosporine]
Experiment: log2 fold change of tryptic peptide abundance, ligand vs vehicle (limited proteolysis) (log2 ratio); higher = more trypsin-susceptible (destabilized)
Details: ligand concentration: 20 uM; sample: K562 cleared lysate; digestion: 4 min, 22 C (HT-PELSA RT4min, Orbitrap Astral)

The chains behind the UniProt entries cited, without tags or fusion partners. Where a name states a change or a piece, a line headed by the entry shows the natural chain unless it says otherwise.
UniProt Q9NP77: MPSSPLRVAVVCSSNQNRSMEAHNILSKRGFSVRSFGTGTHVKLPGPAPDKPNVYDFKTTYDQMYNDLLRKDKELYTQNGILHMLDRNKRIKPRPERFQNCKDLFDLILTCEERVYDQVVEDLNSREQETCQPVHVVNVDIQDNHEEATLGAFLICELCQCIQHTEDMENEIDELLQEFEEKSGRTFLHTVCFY
UniProt Q9NP72: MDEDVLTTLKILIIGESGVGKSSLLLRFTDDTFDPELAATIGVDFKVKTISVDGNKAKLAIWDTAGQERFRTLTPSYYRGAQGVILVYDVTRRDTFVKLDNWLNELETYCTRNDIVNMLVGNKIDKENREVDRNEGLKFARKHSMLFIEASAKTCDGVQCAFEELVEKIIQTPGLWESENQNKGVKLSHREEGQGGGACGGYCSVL
UniProt Q9H8W4: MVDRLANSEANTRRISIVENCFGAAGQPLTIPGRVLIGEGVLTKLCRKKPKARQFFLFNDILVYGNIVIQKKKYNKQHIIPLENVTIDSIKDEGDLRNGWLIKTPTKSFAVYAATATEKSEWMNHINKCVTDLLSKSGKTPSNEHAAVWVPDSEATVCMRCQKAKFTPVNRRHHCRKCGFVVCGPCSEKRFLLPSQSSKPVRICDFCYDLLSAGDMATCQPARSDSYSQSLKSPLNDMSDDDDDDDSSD
UniProt Q9HAS0: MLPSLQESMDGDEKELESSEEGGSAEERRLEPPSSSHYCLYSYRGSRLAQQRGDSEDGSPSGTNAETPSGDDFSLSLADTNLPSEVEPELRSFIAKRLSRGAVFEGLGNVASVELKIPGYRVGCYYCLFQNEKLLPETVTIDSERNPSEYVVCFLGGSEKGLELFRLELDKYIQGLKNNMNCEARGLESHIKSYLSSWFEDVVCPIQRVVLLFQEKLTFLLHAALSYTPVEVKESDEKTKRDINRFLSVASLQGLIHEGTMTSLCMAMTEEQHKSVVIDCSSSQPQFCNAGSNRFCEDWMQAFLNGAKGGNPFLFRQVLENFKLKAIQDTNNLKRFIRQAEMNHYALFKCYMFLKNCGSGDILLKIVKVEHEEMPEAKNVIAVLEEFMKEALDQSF
UniProt Q9H6S1, whole entry: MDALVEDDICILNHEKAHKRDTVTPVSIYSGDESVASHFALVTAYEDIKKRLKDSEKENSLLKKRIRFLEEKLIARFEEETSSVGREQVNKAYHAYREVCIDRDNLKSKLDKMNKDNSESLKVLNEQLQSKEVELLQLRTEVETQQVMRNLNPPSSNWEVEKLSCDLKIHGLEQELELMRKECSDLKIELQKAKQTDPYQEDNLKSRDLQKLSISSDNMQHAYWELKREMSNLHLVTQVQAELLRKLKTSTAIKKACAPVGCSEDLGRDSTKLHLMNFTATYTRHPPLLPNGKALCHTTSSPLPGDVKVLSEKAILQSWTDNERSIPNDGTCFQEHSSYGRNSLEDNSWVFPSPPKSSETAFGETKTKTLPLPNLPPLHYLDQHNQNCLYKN
UniProt Q9H633: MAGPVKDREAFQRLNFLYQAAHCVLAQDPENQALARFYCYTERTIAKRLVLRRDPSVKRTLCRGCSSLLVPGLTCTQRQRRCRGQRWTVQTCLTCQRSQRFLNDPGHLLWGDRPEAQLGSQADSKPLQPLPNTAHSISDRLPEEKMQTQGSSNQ
UniProt Q9NNX1: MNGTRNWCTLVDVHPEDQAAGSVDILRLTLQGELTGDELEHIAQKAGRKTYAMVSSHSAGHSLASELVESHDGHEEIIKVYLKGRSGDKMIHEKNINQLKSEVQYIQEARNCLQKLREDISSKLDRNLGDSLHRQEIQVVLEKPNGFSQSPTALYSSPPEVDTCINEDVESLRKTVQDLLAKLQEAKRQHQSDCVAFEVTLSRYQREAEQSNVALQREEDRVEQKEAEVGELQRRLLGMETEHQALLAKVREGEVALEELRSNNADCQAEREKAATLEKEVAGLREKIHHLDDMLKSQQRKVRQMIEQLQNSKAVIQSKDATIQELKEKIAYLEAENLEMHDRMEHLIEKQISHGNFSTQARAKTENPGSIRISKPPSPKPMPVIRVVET
UniProt Q9H892: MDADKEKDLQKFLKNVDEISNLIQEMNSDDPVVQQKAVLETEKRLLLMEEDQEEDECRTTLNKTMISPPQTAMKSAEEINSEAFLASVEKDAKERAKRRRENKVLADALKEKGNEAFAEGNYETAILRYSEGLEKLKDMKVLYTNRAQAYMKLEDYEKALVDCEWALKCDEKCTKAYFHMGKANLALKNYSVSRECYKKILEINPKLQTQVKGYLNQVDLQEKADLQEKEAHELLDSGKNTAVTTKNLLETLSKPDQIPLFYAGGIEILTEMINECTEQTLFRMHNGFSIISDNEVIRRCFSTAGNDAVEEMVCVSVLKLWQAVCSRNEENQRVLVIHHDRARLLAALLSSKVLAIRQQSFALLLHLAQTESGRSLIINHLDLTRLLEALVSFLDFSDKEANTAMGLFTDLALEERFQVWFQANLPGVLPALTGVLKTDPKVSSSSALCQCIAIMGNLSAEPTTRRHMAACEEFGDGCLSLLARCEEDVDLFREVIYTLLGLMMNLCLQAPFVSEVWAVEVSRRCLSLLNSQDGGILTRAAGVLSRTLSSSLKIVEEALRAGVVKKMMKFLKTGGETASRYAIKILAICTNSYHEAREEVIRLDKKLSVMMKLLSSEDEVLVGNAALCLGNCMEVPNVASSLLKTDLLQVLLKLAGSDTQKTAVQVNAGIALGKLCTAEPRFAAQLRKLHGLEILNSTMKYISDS
UniProt Q9H8U3: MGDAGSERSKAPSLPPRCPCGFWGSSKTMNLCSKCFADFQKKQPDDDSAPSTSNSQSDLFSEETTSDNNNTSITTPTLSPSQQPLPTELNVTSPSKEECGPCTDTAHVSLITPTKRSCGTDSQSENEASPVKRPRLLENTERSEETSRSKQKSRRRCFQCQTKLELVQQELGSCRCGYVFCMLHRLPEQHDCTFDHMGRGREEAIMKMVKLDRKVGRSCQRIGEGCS
UniProt Q9H4K7: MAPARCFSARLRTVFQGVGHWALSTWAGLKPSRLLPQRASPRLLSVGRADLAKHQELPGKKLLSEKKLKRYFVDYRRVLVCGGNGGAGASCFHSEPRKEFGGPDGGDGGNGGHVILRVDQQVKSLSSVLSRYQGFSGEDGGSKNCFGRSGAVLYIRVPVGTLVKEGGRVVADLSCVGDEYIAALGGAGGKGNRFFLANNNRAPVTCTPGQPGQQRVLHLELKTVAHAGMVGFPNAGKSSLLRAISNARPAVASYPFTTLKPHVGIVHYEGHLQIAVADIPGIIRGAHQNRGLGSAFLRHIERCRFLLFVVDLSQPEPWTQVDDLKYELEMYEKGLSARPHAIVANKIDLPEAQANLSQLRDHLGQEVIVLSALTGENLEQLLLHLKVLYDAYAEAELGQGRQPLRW
UniProt Q9HB09: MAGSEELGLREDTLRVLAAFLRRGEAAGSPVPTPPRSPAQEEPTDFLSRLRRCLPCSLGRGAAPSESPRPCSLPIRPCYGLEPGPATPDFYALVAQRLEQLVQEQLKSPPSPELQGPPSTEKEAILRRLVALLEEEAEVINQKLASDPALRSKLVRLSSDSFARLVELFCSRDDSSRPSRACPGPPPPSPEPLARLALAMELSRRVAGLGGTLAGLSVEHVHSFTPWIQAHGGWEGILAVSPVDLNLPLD
UniProt Q9H792: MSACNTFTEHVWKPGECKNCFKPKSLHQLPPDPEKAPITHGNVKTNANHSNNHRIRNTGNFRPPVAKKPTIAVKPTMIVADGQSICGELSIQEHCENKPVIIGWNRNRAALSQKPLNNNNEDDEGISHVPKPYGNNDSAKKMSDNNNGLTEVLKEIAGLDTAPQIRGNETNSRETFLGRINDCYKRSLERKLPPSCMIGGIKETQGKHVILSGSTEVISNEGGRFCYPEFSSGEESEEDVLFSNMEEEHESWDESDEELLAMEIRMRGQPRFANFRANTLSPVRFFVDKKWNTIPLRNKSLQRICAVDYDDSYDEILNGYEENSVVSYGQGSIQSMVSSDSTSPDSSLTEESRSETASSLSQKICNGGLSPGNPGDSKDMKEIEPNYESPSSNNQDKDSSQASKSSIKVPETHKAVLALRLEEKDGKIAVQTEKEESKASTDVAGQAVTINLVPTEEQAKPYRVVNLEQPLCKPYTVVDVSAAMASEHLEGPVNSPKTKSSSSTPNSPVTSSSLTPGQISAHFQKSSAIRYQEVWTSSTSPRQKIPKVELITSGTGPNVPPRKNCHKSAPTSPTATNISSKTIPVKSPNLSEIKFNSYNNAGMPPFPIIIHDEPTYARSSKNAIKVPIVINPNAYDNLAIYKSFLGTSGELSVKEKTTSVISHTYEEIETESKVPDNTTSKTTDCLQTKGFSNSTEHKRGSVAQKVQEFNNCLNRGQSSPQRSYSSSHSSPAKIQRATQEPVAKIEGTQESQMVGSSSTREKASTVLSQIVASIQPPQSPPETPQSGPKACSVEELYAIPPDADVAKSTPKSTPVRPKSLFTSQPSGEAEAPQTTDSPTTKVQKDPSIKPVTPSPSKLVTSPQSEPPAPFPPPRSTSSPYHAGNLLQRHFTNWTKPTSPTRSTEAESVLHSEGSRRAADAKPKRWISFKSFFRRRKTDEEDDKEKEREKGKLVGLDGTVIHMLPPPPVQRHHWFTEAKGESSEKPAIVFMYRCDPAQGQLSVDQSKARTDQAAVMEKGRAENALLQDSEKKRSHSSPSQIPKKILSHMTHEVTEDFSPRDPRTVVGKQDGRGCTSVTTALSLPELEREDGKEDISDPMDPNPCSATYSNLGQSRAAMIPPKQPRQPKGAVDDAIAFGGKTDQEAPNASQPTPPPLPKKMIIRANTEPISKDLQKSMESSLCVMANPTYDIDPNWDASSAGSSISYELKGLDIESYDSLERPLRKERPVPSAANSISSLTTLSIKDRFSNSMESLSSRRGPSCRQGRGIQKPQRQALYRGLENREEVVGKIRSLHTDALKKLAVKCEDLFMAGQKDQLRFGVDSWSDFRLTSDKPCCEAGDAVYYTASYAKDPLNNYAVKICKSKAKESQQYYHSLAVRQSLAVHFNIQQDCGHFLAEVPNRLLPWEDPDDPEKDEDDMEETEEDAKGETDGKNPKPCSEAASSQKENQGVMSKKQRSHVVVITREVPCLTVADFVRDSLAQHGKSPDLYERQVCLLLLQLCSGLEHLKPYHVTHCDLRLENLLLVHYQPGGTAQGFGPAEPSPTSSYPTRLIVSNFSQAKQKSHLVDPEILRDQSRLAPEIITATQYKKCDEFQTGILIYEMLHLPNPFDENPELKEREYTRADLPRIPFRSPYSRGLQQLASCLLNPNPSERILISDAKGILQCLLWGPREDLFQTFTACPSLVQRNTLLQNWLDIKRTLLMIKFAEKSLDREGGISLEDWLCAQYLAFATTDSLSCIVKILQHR
UniProt Q9NP64: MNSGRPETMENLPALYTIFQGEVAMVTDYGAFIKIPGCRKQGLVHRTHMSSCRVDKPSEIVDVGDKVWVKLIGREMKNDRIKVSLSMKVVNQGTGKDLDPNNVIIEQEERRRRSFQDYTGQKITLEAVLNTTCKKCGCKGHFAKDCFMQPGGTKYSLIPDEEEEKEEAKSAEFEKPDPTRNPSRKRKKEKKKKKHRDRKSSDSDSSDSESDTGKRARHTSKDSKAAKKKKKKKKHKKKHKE
UniProt Q9H4A4: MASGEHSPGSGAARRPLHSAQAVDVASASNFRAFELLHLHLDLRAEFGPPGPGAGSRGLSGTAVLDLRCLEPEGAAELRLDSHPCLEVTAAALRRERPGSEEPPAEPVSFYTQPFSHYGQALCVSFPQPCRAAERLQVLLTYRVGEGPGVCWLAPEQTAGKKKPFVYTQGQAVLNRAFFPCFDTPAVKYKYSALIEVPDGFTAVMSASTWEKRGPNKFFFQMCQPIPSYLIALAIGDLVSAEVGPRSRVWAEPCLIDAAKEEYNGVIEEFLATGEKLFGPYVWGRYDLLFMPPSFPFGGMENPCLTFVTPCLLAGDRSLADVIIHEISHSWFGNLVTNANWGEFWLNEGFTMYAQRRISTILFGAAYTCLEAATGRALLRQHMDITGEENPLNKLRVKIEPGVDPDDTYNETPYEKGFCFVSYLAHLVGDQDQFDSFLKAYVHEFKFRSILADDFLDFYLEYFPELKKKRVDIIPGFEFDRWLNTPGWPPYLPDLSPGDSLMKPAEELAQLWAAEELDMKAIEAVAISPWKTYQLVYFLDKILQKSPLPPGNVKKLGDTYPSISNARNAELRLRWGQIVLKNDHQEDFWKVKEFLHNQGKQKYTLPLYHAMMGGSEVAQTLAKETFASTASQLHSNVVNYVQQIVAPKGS
UniProt Q9H9S4: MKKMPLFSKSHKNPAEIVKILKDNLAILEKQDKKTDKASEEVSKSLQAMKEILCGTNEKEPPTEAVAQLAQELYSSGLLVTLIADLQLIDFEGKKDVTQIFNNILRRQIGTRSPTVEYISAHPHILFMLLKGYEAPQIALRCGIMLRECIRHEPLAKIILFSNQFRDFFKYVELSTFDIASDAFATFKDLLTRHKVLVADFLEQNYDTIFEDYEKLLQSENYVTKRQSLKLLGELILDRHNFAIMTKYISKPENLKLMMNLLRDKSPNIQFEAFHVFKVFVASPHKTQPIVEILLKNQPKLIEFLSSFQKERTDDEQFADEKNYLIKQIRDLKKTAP

Target	log2 fold change
PLEKHA2 (peptide sequence: THECLVK, peptide start residue: 250) (UniProt Q9HB19)	-0.485
GPCPD1 (peptide sequence: SCLCPTVSR, peptide start residue: 639) (UniProt Q9NPB8)	0.23
PCIF1 (peptide sequence: QCGPHVSAAAK, peptide start residue: 344) (UniProt Q9H4Z3)	0.642
TAF9B (peptide sequence: DALVMAQILK, peptide start residue: 15) (UniProt Q9HBM6)	-0.0729
SAV1 (peptide sequence: VESSEFGTYYVDHTNKK, peptide start residue: 243) (UniProt Q9H4B6)	-0.472
PLEKHG2 (peptide sequence: LHLSPVGIPGSAR, peptide start residue: 87) (UniProt Q9H7P9)	-0.709
PPAN (peptide sequence: VNLNTIKR, peptide start residue: 172) (UniProt Q9NQ55)	0.468
EHD1 (peptide sequence: ADQIETQQLMR, peptide start residue: 221) (UniProt Q9H4M9)	0.148
USP42 (peptide sequence: SESCSQPVMNGK, peptide start residue: 585) (UniProt Q9H9J4)	0.74
AKTIP (peptide sequence: SVHVAGLSWVKPGSVQPFSK, peptide start residue: 266) (UniProt Q9H8T0)	-0.77
PLEKHA5 (peptide sequence: VFFINEEAK, peptide start residue: 26) (UniProt Q9HAU0)	-0.218
SSU72 (peptide sequence: SFGTGTHVK, peptide start residue: 35) (UniProt Q9NP77)	0.283
ZFYVE28 (peptide sequence: VCTHCYMFHVTPFYSDK, peptide start residue: 868) (UniProt Q9HCC9)	-0.857
SEC61A2 (peptide sequence: EQQMVMR, peptide start residue: 396) (UniProt Q9H9S3)	0.185
UniProt Q9H5X1 (peptide sequence: HKLEIYISEGTHSTEEDINK, peptide start residue: 112)	-0.333
RAB18 (peptide sequence: LAIWDTAGQER, peptide start residue: 59) (UniProt Q9NP72)	0.238
PLEKHF2 (peptide sequence: QHIIPLENVTIDSIKDEGDLR, peptide start residue: 77) (UniProt Q9H8W4)	-0.29
RANGRF (peptide sequence: DVTLHQALLR, peptide start residue: 121) (UniProt Q9HD47)	-0.152
ACAD9 (peptide sequence: VSTVMDTVGR, peptide start residue: 460) (UniProt Q9H845)	-0.205
C17orf75 (peptide sequence: RLEPPSSSHYCLYSYRGSR, peptide start residue: 29) (UniProt Q9HAS0)	-0.785
BCAS3 (peptide sequence: WVVVSTLR, peptide start residue: 419) (UniProt Q9H6U6)	-0.362

Target	log2 fold change
AZI2 (peptide sequence: EVCIDRDNLK, peptide start residue: 98) (UniProt Q9H6S1)	0.363
RPP21 (peptide sequence: PLQPLPNTAHSISDRLPEEK, peptide start residue: 126) (UniProt Q9H633)	0.235
MRPL40 (peptide sequence: LHAEAIKR, peptide start residue: 157) (UniProt Q9NQ50)	0.533
SP110 (peptide sequence: LQVVDKVTQR, peptide start residue: 389) (UniProt Q9HB58)	-0.48
LZTFL1 (peptide sequence: NMKEILTK, peptide start residue: 273) (UniProt Q9NQ48)	0.399
EXOSC4 (peptide sequence: VLEAAAQAAR, peptide start residue: 213) (UniProt Q9NPD3)	0.377
ZNF696 (peptide sequence: AFIHSSHVVR, peptide start residue: 161) (UniProt Q9H7X3)	0.508
BRMS1 (peptide sequence: LRLEEVGAERAPEYTEPLGGLQR, peptide start residue: 88) (UniProt Q9HCU9)	-0.255
TUFT1 (peptide sequence: ISKPPSPKPMPVIR, peptide start residue: 373) (UniProt Q9NNX1)	-0.367
CCDC134 (peptide sequence: IDRTEFIPSTDPFQK, peptide start residue: 184) (UniProt Q9H6E4)	-0.134
NMRAL1 (peptide sequence: FYALRPDRDIELTLR, peptide start residue: 263) (UniProt Q9HBL8)	0.426
PPCS (peptide sequence: LLLSEEEIEKGVEIEEK, peptide start residue: 278) (UniProt Q9HAB8)	0.699
TTC12 (peptide sequence: ALVDCEWALK, peptide start residue: 159) (UniProt Q9H892)	0.392
ZFAND3 (peptide sequence: SKAPSLPPR, peptide start residue: 9) (UniProt Q9H8U3)	-0.338
RGCC (peptide sequence: HFHYEEHLER, peptide start residue: 50) (UniProt Q9H4X1)	-0.271
MRPL44 (peptide sequence: NLVDFLTGEEVVCHVAR, peptide start residue: 155) (UniProt Q9H9J2)	0.315
WDR41 (peptide sequence: TVIVWDGDTTR, peptide start residue: 114) (UniProt Q9HAD4)	-0.409
ZHX3 (peptide sequence: QSWHQTPDFTPTK, peptide start residue: 603) (UniProt Q9H4I2)	0.358
AKIRIN1 (peptide sequence: LAEQYESFVK, peptide start residue: 164) (UniProt Q9H9L7)	-0.159
ETNK1 (peptide sequence: LIGCYVGNTMEDVVLVR, peptide start residue: 151) (UniProt Q9HBU6)	-0.354
UniProt Q9H6V9 (peptide sequence: IATPLLCWFR, peptide start residue: 178)	0.337

Target	log2 fold change
UniProt Q9H7H0 (peptide sequence: FSMVILAR, peptide start residue: 369)	0.71
UniProt Q9H4K7 (peptide sequence: FFLANNNR, peptide start residue: 194)	0.187
BCL2L12 (peptide sequence: RLVALLEEEAEVINQK, peptide start residue: 212) (UniProt Q9HB09)	0.257
GRPEL1 (peptide sequence: EEIKDDNPHLK, peptide start residue: 128) (UniProt Q9HAV7)	0.275
BRD7 (peptide sequence: VENEAEKDLQCHAPVR, peptide start residue: 97) (UniProt Q9NPI1)	0.393
KANSL2 (peptide sequence: NALALHAQMK, peptide start residue: 95) (UniProt Q9H9L4)	0.208
ISYNA1 (peptide sequence: VLDWGLQEQLWPHMEALRPR, peptide start residue: 156) (UniProt Q9NPH2)	0.196
CYLD (peptide sequence: FHSLPFSLTK, peptide start residue: 416) (UniProt Q9NQC7)	-0.215
NOL11 (peptide sequence: HIEVEVR, peptide start residue: 412) (UniProt Q9H8H0)	-0.227
CXorf56 (peptide sequence: SVVCSDTR, peptide start residue: 8) (UniProt Q9H5V9)	-0.167
MLXIP (peptide sequence: AWYMQYLEK, peptide start residue: 169) (UniProt Q9HAP2)	-0.435
UniProt Q9H7B2 (peptide sequence: KSDCSLFMFGSHNKK, peptide start residue: 84)	0.575
PEAK1 (peptide sequence: GAVDDAIAFGGK, peptide start residue: 1128) (UniProt Q9H792)	0.379
ZCCHC17 (peptide sequence: SAEFEKPDPTRNPSR, peptide start residue: 170) (UniProt Q9NP64)	-0.132
RNPEP (peptide sequence: AFELLHLHLDLR, peptide start residue: 33) (UniProt Q9H4A4)	-0.718
METTL8 (peptide sequence: MHCPTVPDEK, peptide start residue: 144) (UniProt Q9H825)	0.437
MCCC2 (peptide sequence: LPCIYLVDSGGAYLPR, peptide start residue: 165) (UniProt Q9HCC0)	-0.18
CAB39L (peptide sequence: TDDEQFADEK, peptide start residue: 313) (UniProt Q9H9S4)	0.635
CPNE5 (peptide sequence: DIVQFVPFR, peptide start residue: 485) (UniProt Q9HCH3)	-0.134

14 neighbouring entries out of the list so far:
Target	log2 fold change
BCL2L12 (peptide sequence: RLVALLEEEAEVINQK, peptide start residue: 212) (UniProt Q9HB09)	0.257
GRPEL1 (peptide sequence: EEIKDDNPHLK, peptide start residue: 128) (UniProt Q9HAV7)	0.275
BRD7 (peptide sequence: VENEAEKDLQCHAPVR, peptide start residue: 97) (UniProt Q9NPI1)	0.393
KANSL2 (peptide sequence: NALALHAQMK, peptide start residue: 95) (UniProt Q9H9L4)	0.208
ISYNA1 (peptide sequence: VLDWGLQEQLWPHMEALRPR, peptide start residue: 156) (UniProt Q9NPH2)	0.196
CYLD (peptide sequence: FHSLPFSLTK, peptide start residue: 416) (UniProt Q9NQC7)	-0.215
NOL11 (peptide sequence: HIEVEVR, peptide start residue: 412) (UniProt Q9H8H0)	-0.227
CXorf56 (peptide sequence: SVVCSDTR, peptide start residue: 8) (UniProt Q9H5V9)	-0.167
MLXIP (peptide sequence: AWYMQYLEK, peptide start residue: 169) (UniProt Q9HAP2)	-0.435
UniProt Q9H7B2 (peptide sequence: KSDCSLFMFGSHNKK, peptide start residue: 84)	0.575
PEAK1 (peptide sequence: GAVDDAIAFGGK, peptide start residue: 1128) (UniProt Q9H792)	0.379
ZCCHC17 (peptide sequence: SAEFEKPDPTRNPSR, peptide start residue: 170) (UniProt Q9NP64)	-0.132
RNPEP (peptide sequence: AFELLHLHLDLR, peptide start residue: 33) (UniProt Q9H4A4)	-0.718
METTL8 (peptide sequence: MHCPTVPDEK, peptide start residue: 144) (UniProt Q9H825)	0.437

From the supplement of paper PMC12819154, “High-throughput peptide-centric local stability assay extends protein–ligand identification to membrane proteins, tissues and bacteria” (Nature Structural & Molecular Biology, 2025)
